US10857167B2, “Use of oligosaccharide compositions to enhance weight gain” (Children's Hospital Medical Center, priority 2015, dated 2020)
The source gives many values for each of these; only a part stands here.

System: distal small bowel gene expression
Test: RNA sequencing / transcriptional analysis of small bowel 56 days after ICR (2′-FL signature response)
Type: in vivo, mouse
From the text: Luminal small bowel contents were expressed into AllProtect Tissue Reagent (Qiagen Inc, CA). Bacterial DNA was extracted using the AllPrep DNA/RNA Mini Kit (Qiagen Inc, CA), according to kit instructions and prior to sequencing (described below). Small bowel tissue samples for RNA were placed into RNA Later (Life Technologies, NY). RNA extraction was accomplished following Qiagen RNeasy Plus Kit instruction (Qiagen Inc, CA). All nucleic acid samples were then stored at -80 Celsius until sequenced (described below). Transcriptional analysis was carried out on resected and harvested small bowel samples obtained from operated mice taken to 8 weeks. Murine RNA sequencing libraries were prepared from approximately 1.5 μg RNA using the TruSeq RNA Sample Preparation Kit (Illumina, Calif.) and sequenced using the HiSeq 2000 Sequencing System (Illumina, Calif.) with single-end 50 bp reads. Following removal of primers and barcodes, sequences were aligned to the mm10 genome using reference annotations from UCSC (Rosenbloom et al. (2015) Nucleic acids research 43: […]-681) (n=36,186 entities). Aligned reads were quantified and used to compute reads per kilobase per million mapped reads (RPKM); raw counts were then normalized using the DESeq algorithm and each harvested sample was baselined to its own resected sample. A filter was applied to the data, requiring at least three reads in all samples of at least one of the four experimental conditions (n=14,489 entities). The data discussed in this publication have been deposited in NCBI's Gene Expression Omnibus and are accessible through NCBI Gene Expression Omnibus (GEO) Series accession number GSE72590. Edgar et al. (2002) Nucleic acids research 30: 207-210. In order to characterize the impact of 2'-FL supplementation while accounting for the effect of ileoecal resection, a t-test was applied between resected and harvested samples within control and experimental animals. Significance was set at a p-value of ≤0.05 and a fold change of 3, which generated 2,576 differentially regulated entities across two comparisons. Gene set unions and intersections of the control and experimental gene sets were identified through Venn diagrams. From the master list, the gene list specific to animals supplemented with 2'-FL were removed in order to identify genes differentially regulated only by ICR (n=546 entities); this gene set characterizes the adaptive response. Further, the 2'-FL response (n=2,030 entities) was identified by removing the adaptive response signature described above from the master list, leaving only genes regulated by 2'-FL supplementation after ICR which were not found in the non-supplemented adaptive response. Heatmaps were generated using hierarchical clustering with the Pearson's Centered distance metric and the average linkage rule; both entities and samples were clustered. All genomic analyses described above were performed in Strand NGS (Strand Life Sciences, CA). Gene list functional enrichment was initially discovered using ToppFun, a member of the ToppGene Suite. Chen et al. (2009) Nucleic acids research 37: […]-311. No statistical correction was selected. Gene lists were further analyzed using ClueGO, a plugin for Cytoscape designed to decipher functionally grouped gene ontology and pathway annotation networks. Bindea et al. (2009) Bioinformatics 25: 1091-1093. At the time of data analysis, the annotation files were updated from sources to Jan. 1, 2015. “GO Term Fusion” was enabled to manage ontologic term redundancy and network specificity was set to medium. Results were restricted to pathways with p≤0.05 using Benjamini-Hochberg correction and Kappa scoring was set to 0.4. Biocyc annotations were assigned a rectangle, gene ontology biologic processes were assigned an ellipse, and […] annotations were assigned a diamond shape. No meaning was assigned to size or color. […]

C[C@@H]1O[C@@H](O[C@H]2[C@H](O[C@H]3[C@H](O)[C@@H](O)C(O)O[C@@H]3CO)O[C@H](CO)[C@H](O)[C@@H]2O)[C@@H](O)[C@H](O)[C@@H]1O (stereo partly drawn) [2′-FL, 2′-fucosyllactose]
Fold Change (Pre- to Post-op) (15-Sep): 4.813
Fold Change (Pre- to Post-op) (0610007P14Rik): 3.908
Fold Change (Pre- to Post-op) (0610008F07Rik): 8.362
Fold Change (Pre- to Post-op) (0610009B22Rik): 3.407
Fold Change (Pre- to Post-op) (1110001A16Rik): 4.082
Fold Change (Pre- to Post-op) (1110001J03Rik): 4.318
Fold Change (Pre- to Post-op) (1110008F13Rik): 3.013
Fold Change (Pre- to Post-op) (1110008P14Rik): 3.31
Fold Change (Pre- to Post-op) (1110034G24Rik): 4.269
Fold Change (Pre- to Post-op) (1110046J04Rik): 5.462
Fold Change (Pre- to Post-op) (1110059E24Rik): 3.386
Fold Change (Pre- to Post-op) (1110065P20Rik): 3.231
Fold Change (Pre- to Post-op) (1190002F15Rik): 3.327
Fold Change (Pre- to Post-op) (1500009L16Rik): 3.939
Fold Change (Pre- to Post-op) (1500011K16Rik): 4.922
Fold Change (Pre- to Post-op) (1500012F01Rik): 5.374
Fold Change (Pre- to Post-op) (1600020E01Rik): 3.548
Fold Change (Pre- to Post-op) (1700001C19Rik): 6.39
Fold Change (Pre- to Post-op) (1700007L15Rik): 3.598
Fold Change (Pre- to Post-op) (1700011J10Rik): 3.153
Fold Change (Pre- to Post-op) (1700012D14Rik): 5.796
Fold Change (Pre- to Post-op) (1700024P16Rik): 3.748
Fold Change (Pre- to Post-op) (1700066M21Rik): 3.487
Fold Change (Pre- to Post-op) (1700123I01Rik): 3.901
Fold Change (Pre- to Post-op) (1810022K09Rik): 3.829
Fold Change (Pre- to Post-op) (1810037I17Rik): 3.823
Fold Change (Pre- to Post-op) (2010010A06Rik): 3.358
Fold Change (Pre- to Post-op) (2010106C02Rik): 4.514
Fold Change (Pre- to Post-op) (2010107E04Rik): 3.76
Fold Change (Pre- to Post-op) (2010107G23Rik): 3.868
Fold Change (Pre- to Post-op) (2010315B03Rik): 3.599
Fold Change (Pre- to Post-op) (2200002D01Rik): 3.45
Fold Change (Pre- to Post-op) (2200002J24Rik): 15.95
Fold Change (Pre- to Post-op) (2210404O09Rik): 3.071
Fold Change (Pre- to Post-op) (2210407C18Rik): 3.899
Fold Change (Pre- to Post-op) (2310009B15Rik): 3.562
Fold Change (Pre- to Post-op) (2310011J03Rik): 3.309
Fold Change (Pre- to Post-op) (2310040G24Rik): 4.638
Fold Change (Pre- to Post-op) (2410006H16Rik): 3.043
Fold Change (Pre- to Post-op) (2410015M20Rik): 3.879
Fold Change (Pre- to Post-op) (2410018M08Rik): 3.287
Fold Change (Pre- to Post-op) (2610044O15Rik8): 3.978
Fold Change (Pre- to Post-op) (2810001G20Rik): 3.668
Fold Change (Pre- to Post-op) (2810008D09Rik): 3.37
Fold Change (Pre- to Post-op) (2810013P06Rik): 3.018
Fold Change (Pre- to Post-op) (2810433D01Rik): 6.1
Fold Change (Pre- to Post-op) (3110040N11Rik): 3.233
Fold Change (Pre- to Post-op) (3110056K07Rik): 4.093
Fold Change (Pre- to Post-op) (3110070M22Rik): 7.551
Fold Change (Pre- to Post-op) (4930415O20Rik): 4.883
Fold Change (Pre- to Post-op) (4933422H20Rik): 4.499
Fold Change (Pre- to Post-op) (5033403H07Rik): 4.67
Fold Change (Pre- to Post-op) (5033411D12Rik): 3.505
Fold Change (Pre- to Post-op) (5730408K05Rik): 5.448
Fold Change (Pre- to Post-op) (5830416P10Rik): 10.25
Fold Change (Pre- to Post-op) (6720489N17Rik): 4.273
Fold Change (Pre- to Post-op) (9530052C20Rik): 4.033
Fold Change (Pre- to Post-op) (A430005L14Rik): 3.813
Fold Change (Pre- to Post-op) (A630001O12Rik): 10.88
Fold Change (Pre- to Post-op) (A730063M14Rik): 5.514
Fold Change (Pre- to Post-op) (A930006K02Rik): 6.095
Fold Change (Pre- to Post-op) (A930015D03Rik): 3.192
Fold Change (Pre- to Post-op) (AA465934): 7.221
Fold Change (Pre- to Post-op) (AA467197): 6.565
Fold Change (Pre- to Post-op) (Abhd11os): 3.549
Fold Change (Pre- to Post-op) (Abhd17a): 3.094
Fold Change (Pre- to Post-op) (Acbd4): 3.196
Fold Change (Pre- to Post-op) (Acn9): 5.819
Fold Change (Pre- to Post-op) (Acot12): 3.166
Fold Change (Pre- to Post-op) (Acot13): 3.51
Fold Change (Pre- to Post-op) (Actr6): 3.571
Fold Change (Pre- to Post-op) (Acyp1): 3.962
Fold Change (Pre- to Post-op) (Adh6a): 3.5
Fold Change (Pre- to Post-op) (Adprm): 3.567
Fold Change (Pre- to Post-op) (Agbl3): 3.602
Fold Change (Pre- to Post-op) (Agbl5): −3.003
Fold Change (Pre- to Post-op) (Akr1b8): 3.435
Fold Change (Pre- to Post-op) (Akr1c12): 3.469
Fold Change (Pre- to Post-op) (Akr1c13): 6.507
Fold Change (Pre- to Post-op) (Akr1c19): 8.797
Fold Change (Pre- to Post-op) (Aldh1a1): 3.377
Fold Change (Pre- to Post-op) (Aldh1a7): 3.27
Fold Change (Pre- to Post-op) (Aldoc): 5.654
Fold Change (Pre- to Post-op) (Alkbh7): 3.67
Fold Change (Pre- to Post-op) (Ankrd13b): −3.01
Fold Change (Pre- to Post-op) (Anxa9): 3.441
Fold Change (Pre- to Post-op) (Apitd1): 3.826
Fold Change (Pre- to Post-op) (Apoa2): 9.395
Fold Change (Pre- to Post-op) (Apoc3): 3.491
Fold Change (Pre- to Post-op) (Apoc4): 4.486
Fold Change (Pre- to Post-op) (Apopt1): 3.11
Fold Change (Pre- to Post-op) (Arf5): 3.548
Fold Change (Pre- to Post-op) (Arhgap11a): −3.009
Fold Change (Pre- to Post-op) (Arl1): 3.797
Fold Change (Pre- to Post-op) (Arl4a): 3.405
Fold Change (Pre- to Post-op) (Arsg): 3.436
Fold Change (Pre- to Post-op) (Art2a-ps): 3.494
Fold Change (Pre- to Post-op) (Atf3): 3.938
Fold Change (Pre- to Post-op) (Atg4a-ps): 3.505
Fold Change (Pre- to Post-op) (Atg5): 3.402
Fold Change (Pre- to Post-op) (Atg12): 3.227
Fold Change (Pre- to Post-op) (Atox1): 3.524
Fold Change (Pre- to Post-op) (Atp5e): 6.206
Fold Change (Pre- to Post-op) (Atp5f1): 3.505
Fold Change (Pre- to Post-op) (Atp5j): 3.073
Fold Change (Pre- to Post-op) (Atp5k): 5.325
Fold Change (Pre- to Post-op) (Atp5l): 4.679
Fold Change (Pre- to Post-op) (Atp5o): 3.522
Fold Change (Pre- to Post-op) (Atp6v0b): 3.974
Fold Change (Pre- to Post-op) (Atp6v0e): 3.054
Fold Change (Pre- to Post-op) (Atp6v1g1): 3.248
Fold Change (Pre- to Post-op) (Atp5h): 3.312
Fold Change (Pre- to Post-op) (B9d1): 3.968
Fold Change (Pre- to Post-op) (BC002163): 3.924
Fold Change (Pre- to Post-op) (BC025446): 3.651
Fold Change (Pre- to Post-op) (BC029214): 3.516
Fold Change (Pre- to Post-op) (BC035044): 5.04
Fold Change (Pre- to Post-op) (BC051226): 3.802
Fold Change (Pre- to Post-op) (BC061194): 5.845
Fold Change (Pre- to Post-op) (BC096441): 4.013
